Like-named read-outs stand apart in the source and are kept apart here. No constants are given. Whether binding was seen depends on the method and setting. In cells and extracts the contact can be indirect. Some entries that bind do so weakly or less than the wild type. Where a sequence is shown, tags or fusion partners need not be part of it.

Sequences of proteins named here, by UniProt entry; tags and fusion partners are left off.
UniProt Q38C92: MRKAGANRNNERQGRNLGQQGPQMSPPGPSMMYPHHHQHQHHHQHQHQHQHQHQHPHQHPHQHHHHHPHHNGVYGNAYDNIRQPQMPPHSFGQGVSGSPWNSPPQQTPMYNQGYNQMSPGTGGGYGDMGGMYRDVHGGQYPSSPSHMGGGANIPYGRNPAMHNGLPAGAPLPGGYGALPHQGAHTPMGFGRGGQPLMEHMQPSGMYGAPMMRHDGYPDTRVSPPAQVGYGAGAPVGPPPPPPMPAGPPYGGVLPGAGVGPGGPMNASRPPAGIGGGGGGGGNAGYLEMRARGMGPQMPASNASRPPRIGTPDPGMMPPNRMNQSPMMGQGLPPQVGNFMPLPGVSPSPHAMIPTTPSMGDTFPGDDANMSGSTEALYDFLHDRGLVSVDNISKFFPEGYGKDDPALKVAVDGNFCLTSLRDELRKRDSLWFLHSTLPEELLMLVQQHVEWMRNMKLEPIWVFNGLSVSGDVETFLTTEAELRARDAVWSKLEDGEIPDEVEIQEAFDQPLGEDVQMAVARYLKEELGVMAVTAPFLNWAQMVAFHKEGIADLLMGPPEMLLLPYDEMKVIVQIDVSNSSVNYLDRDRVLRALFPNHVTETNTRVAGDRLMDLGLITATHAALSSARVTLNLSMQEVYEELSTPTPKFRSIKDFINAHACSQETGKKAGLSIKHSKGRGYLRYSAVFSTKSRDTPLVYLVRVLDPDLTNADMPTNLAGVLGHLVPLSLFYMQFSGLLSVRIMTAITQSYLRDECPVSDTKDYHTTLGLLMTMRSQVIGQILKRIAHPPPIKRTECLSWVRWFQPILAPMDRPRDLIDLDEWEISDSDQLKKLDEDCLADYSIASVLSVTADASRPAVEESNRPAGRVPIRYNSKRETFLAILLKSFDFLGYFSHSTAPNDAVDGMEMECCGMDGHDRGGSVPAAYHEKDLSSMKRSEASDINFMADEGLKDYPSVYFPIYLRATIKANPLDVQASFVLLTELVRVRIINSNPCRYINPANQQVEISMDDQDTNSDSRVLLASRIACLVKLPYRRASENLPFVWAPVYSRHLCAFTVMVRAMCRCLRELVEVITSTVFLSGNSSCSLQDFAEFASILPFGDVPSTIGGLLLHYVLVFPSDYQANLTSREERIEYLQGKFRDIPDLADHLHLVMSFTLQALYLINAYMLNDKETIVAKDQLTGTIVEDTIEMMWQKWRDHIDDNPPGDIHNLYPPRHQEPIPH

Common to all, as to assay: co-IP
The target in assay [1] is T1, ZC3H20-myc (Trypanosoma brucei) (UniProt Q57XK8).
T1 sequence: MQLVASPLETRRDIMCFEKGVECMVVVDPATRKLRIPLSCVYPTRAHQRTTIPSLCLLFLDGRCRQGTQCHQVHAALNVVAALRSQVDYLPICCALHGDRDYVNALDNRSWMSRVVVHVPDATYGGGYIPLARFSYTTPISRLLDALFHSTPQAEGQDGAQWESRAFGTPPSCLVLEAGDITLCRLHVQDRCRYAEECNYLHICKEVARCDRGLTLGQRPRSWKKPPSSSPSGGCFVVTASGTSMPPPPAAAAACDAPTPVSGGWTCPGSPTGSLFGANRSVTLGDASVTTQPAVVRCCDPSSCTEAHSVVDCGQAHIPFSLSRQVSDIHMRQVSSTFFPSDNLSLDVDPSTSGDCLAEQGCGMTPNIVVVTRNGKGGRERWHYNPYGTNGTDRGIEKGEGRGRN

The target of assay [2] is T1, ZC3H20-myc (Trypanosoma brucei). This is another data set of the same source.
For assay [3], the target named is T2, YFP-XAC1 (Trypanosoma brucei) (UniProt Q57Y88).
T2 sequence: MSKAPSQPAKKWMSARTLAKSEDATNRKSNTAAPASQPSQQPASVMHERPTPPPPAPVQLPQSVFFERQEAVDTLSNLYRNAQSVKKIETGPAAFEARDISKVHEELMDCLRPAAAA

Assay [4] addresses T3, LSM12-myc (Trypanosoma brucei) (UniProt Q38E83).
T3 sequence: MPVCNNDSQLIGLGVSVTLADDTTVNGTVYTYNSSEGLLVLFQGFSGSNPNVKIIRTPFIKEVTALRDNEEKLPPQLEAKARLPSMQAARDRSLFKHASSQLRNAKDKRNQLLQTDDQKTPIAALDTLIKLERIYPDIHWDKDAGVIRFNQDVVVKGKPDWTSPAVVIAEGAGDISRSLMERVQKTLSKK

In the case of V5-MKT1L (from UniProt Q38C92 1-1220), the binding entry in assay [1] was “binds weakly”.

B1: V5-MKT1 (protein, UniProt Q587E3 1-735)
chain: MYPRHDDVSLFQRFVNDHKLEEKGLPLYQLAQLEGTDQVMLGVDGTKIIDMITQAVREREKMAIYTYTTPYTVYEKINEFRTMFQSIKNCTPVFVFNGIQYSPDSAEEFGREKNVVPSEVAALTGTDSSRLSNTTNVRFAEIHKKTANRFVVEEDVEGQIIRIFRSEFKNTIRAPYLAWAQLSSFRHCNHRHISEVYGCLELLAFPGIDRVVTNINPTRGTFDVVYKARVLEAARLSEEDLSSLILVESRSRVMRTVTLKFSSLEDMIKKVVRYKGSTIGASFAQQLHEEAIRASEANRMRASNQRGAAFRNLSAFASPVLTLTPPHCLPLHFLYGIPGFPHADAESFVGLPLPPVLYYIMSAGLLSPSLFAAVSQETVVDDWPLVDSIKYRDVAETVLPLRVQTIYQLAWTMSRGLGSISWFRRYNVLPARVSKLHVPPAIQLDGWALHSVTVPRGLHLVDVMEFAHLACSVDQVIYNTMEETYAAILLQSLDLLGYLTHETQDLHEEGQSSEPSTFGRALQLCSVPTLSEYTVLLIELARTNAISTEPFRITTEEVSPRDTPRDIVFASRVLSIIPLNVSGPWTAPIDAELAAFSMLSRMISRSIRQLLEAITTLMFSKGRTHVPLHRIGEIQRLLPFSTPVEFGCGVLVEYMLMKDKCTLKDLEEAFPECTYLRHDLATLFYFWDLAVQVLQRIETKENFCVDQHCLSSANERMKRAQKNLNILTGVRETYY
In the case of B1, the binding entry in assay [2] is recorded as “binds”.

B2: LSM12-myc (protein, UniProt Q38E83 1-190)
chain: MPVCNNDSQLIGLGVSVTLADDTTVNGTVYTYNSSEGLLVLFQGFSGSNPNVKIIRTPFIKEVTALRDNEEKLPPQLEAKARLPSMQAARDRSLFKHASSQLRNAKDKRNQLLQTDDQKTPIAALDTLIKLERIYPDIHWDKDAGVIRFNQDVVVKGKPDWTSPAVVIAEGAGDISRSLMERVQKTLSKK
Consider B2, for which the binding entry in assay [3] was “binds”.

B3: YFP-XAC1 (protein, UniProt Q57Y88 1-117)
chain: MSKAPSQPAKKWMSARTLAKSEDATNRKSNTAAPASQPSQQPASVMHERPTPPPPAPVQLPQSVFFERQEAVDTLSNLYRNAQSVKKIETGPAAFEARDISKVHEELMDCLRPAAAA
As to B3, the binding result in assay [4] is “binds”.

Values taken from doi:10.1101/2020.03.02.973057.
